Measured values: paper PMC10803289, “Transport and inhibition mechanism of the human SGLT2–MAP17 glucose transporter” (Nature Structural & Molecular Biology, 2023)
No constants are given. Whether binding was seen depends on the method and setting. Some results given as binding are weak or reduced against the parent protein; the word gives no strength. Where a sequence is shown, tags or fusion partners need not be part of it.

Assays:
[1] = molecular target: T1, sfGFP-tagged human sodium–glucose cotransporter 2 (hSGLT2) (human) (UniProt P31639); test: SEC; fluorescence-detection SEC (FSEC) of detergent-solubilized Expi293 cells expressing sfGFP-tagged hSGLT2 with or without MAP17; ACQUITY UPLC BEH450 SEC column; GFP fluorescence monitored
T1 sequence: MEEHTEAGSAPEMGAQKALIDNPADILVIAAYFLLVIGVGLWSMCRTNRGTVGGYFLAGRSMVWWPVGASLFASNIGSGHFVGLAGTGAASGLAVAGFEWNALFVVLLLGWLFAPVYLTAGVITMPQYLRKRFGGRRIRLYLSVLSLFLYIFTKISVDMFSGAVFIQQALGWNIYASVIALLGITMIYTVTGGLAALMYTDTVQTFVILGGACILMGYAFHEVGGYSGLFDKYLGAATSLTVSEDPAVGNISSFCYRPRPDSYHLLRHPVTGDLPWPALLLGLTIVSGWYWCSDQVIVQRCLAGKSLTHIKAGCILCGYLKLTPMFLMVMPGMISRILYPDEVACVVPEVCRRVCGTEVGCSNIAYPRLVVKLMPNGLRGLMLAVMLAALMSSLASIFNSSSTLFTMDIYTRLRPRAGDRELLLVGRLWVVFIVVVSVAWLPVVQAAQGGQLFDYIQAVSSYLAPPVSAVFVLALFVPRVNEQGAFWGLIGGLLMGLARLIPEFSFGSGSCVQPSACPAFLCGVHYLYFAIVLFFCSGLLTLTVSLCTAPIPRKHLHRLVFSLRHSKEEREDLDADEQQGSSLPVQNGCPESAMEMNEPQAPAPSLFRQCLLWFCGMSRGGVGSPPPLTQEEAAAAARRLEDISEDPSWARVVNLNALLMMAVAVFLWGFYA

[2] = molecular target: T2, human sodium–glucose cotransporter 2 (hSGLT2), His10–sfGFP tag cleaved (human) (UniProt P31639); test: cryo-EM structure; co-expressed hSGLT2–MAP17 complex purified in DDM micelles (20 mM HEPES–NaOH pH 7.5, 150 mM NaCl, 0.03% DDM) with 0.5 mM canagliflozin, dapagliflozin, TA-1887, sotagliflozin or phlorizin; single-particle analysis; outward-facing (four gliflozins) and inward-open (phlorizin) conformations; both purified
T2 sequence (chain, N-glycan attached to N250): T1 sequence

B1: human MAP17 (protein, UniProt Q13113 1-114)
chain: MSALSLLILGLLTAVPPASCQQGLGNLQPWMQGLIAVAVFLVLVAIAFAVNHFWCQEEPEPAHMILTVGNKADGVLVGTDGRYSSMAASFRSSEHENAYENVPEEEGKVRSTPM
B1 was tested, and the binding [1] was “binds” and the binding [2] was “binds”.
